Experiment [1] addresses ACT of Bordetella parapertussis (Bordetella parapertussis). The experiment in a line: ELISA on RTX from different Bordetella species (FIG. 13A). Background: ELISA stands for enzyme-linked immunosorbent assay.
The target in experiment [2] is ACT of Bordetella bronchiseptica (Bordetella bronchiseptica). Described as above.

These are yes or no findings as the source states them, for the method shown.

B1: M1H5 antibody (format not stated) (antibody, V domains shown)
VH: EVNLVESGGDLVKPGGSLKLSCAASGFTFSSYGMSWVRQTPDKRLEWVATISSGGTYTYYPDSVKGRFTISRDNAKNTLYLQMSSLKSEDTAMYYCAREIMRGGGYYFDYWSQGTTLTVSS
VL: DIQMIQSTSSLSASLGDRVTISCRASQDISNYLNWYQQKPDGTVKLLIYYTSRLHSGVPSRFSGSGSGTDYSLTISNLEQEDIATYFCQQGNTLPYTFGGGTKLEIKR
As to B1, the binding entry in experiment [1] and in experiment [2] was “no binding” throughout.
